According to paper PMC7810883, “Phosphorylation-induced changes in the PDZ domain of Dishevelled 3” (Scientific Reports, 2021):
Where a chain is given by its changes, count along the chain named. These are yes or no findings as the source states them, for the method shown. Some entries that bind do so weakly or less than the wild type.

T1: PDZ domain of human Dishevelled 3 (DVL3), aa 243-338, S263E (human) (UniProt Q92997)
T1 sequence: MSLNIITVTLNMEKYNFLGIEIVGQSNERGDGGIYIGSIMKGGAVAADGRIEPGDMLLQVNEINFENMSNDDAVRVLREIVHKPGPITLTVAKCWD

B1: PDZ domain of human Dishevelled 3 (DVL3), aa 243-338, wild type (domain or fragment, UniProt Q92997 243-338)
chain: T1 sequence with E21S

Experiments:
[1] = target: T1, PDZ domain of human Dishevelled 3 (DVL3), aa 243-338, S263E (human); test: NMR titration; 1H-15N HSQC of 100 uM 15N-labelled PDZ wt/mutant with increasing amounts of C-terminal peptide (stock 800 uM, up to four-fold over PDZ); 50 mM sodium-phosphate pH 6.5, 50 mM KCl; both purified
[2] = target: PDZ domain of human Dishevelled 3 (DVL3), aa 243-338, wild type (human) (UniProt Q92997); test: AUC; sedimentation velocity, 60000 rpm, 20 C, 25 uM and 100 uM PDZ wt, phosphate pH 6.5, 50 mM KCl; both purified

Binder | binding [1] | binding [2]
RQSFRMAMGNPSEFFVDVM (peptide, UniProt Q92997 698-716, phosphoserine at 700 (pS700); uncapped) [C-terminal DVL peptide consisting of aa 698-716 from DVL3 with phosphorylated pS700] | binds weakly | 
B1 |  | no binding (tested: 25 and 100 uM)
